Experimental data taken from the supplement of paper PMC12889115.
The other results are listed elsewhere or left out. These are raw signals, not scaled to a control.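 Primary screen: polymyxin B was added at a level permeabilizing Salmonella outer membranes while sparing inner membranes. DMSO wells, both with and without polymyxin B, established maximum growth. Plate-to-plate variation meant each plate was ranked on its own, and the lowest-OD600 compounds were selected as hits.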

System: Salmonella enterica serovar Typhimurium SL1344
Assay: bacterial growth OD600 after 18 h with compound and polymyxin B; higher = more bacterial growth (less inhibition)
Settings: 50 µM, Mueller-Hinton broth

| Compound | bacterial growth OD600 (polymyxin B 0.75 µg/mL) | bacterial growth OD600 (polymyxin B 1 µg/mL) |
| --- | --- | --- |
| COC1CCCN(C(=O)C2(N3CCCCC3)Cc3ccccc3C2)C1 (centres undefined) | 0.524 | – |
| CC(=O)c1cc(CN2CCC(n3nccc3NC(=O)Cc3ccccc3)CC2)cs1 | – | 0.922 |
| Cc1noc(-c2ccc(N3CCCCC3CCN3CCCC3=O)nc2)n1 (centres undefined) | – | 1.1 |
| COCC1CCN(C(=O)c2cn(C(c3ccccc3)c3ccccc3)nn2)C1 (centres undefined) | – | 0.68 |
| Cc1ccccc1C1(CC(=O)N2CCN(CCO)CC2)CC(=O)N(Cc2ccncc2)C1=O (centres undefined) | 0.852 | – |
| COc1ccccc1C1CN(CC(=O)N(C)CC2CCN(CC(C)C)C2)Cc2ccccc2O1 (centres undefined) | 0.617 | – |
| Fc1cccc(C2CCCCN2Cc2nc(Cc3ccccc3F)no2)c1 (centres undefined) | – | 0.982 |
| COc1ccccc1CCN1CCC(CN(C)C(=O)Cc2cccc(F)c2)CC1 | – | 0.882 |
| COc1cccc(CC2=NOC(C(=O)N3CCC(Oc4ccccc4OC)CC3)C2)c1 (centres undefined) | 0.748 | – |

Among those listed so far, these contain fluorine:

| Compound | bacterial growth OD600 (polymyxin B 0.75 µg/mL) | bacterial growth OD600 (polymyxin B 1 µg/mL) |
| --- | --- | --- |
| Fc1cccc(C2CCCCN2Cc2nc(Cc3ccccc3F)no2)c1 (centres undefined) | – | 0.982 |
| COc1ccccc1CCN1CCC(CN(C)C(=O)Cc2cccc(F)c2)CC1 | – | 0.882 |
